Counter-ions that a name gives are not always drawn. The list shows a part of the results. Single values are uncertain here, since repeats match poorly.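 The human kidney-derived cells carry a stably integrated construct of eight TEAD-binding elements driving luciferase, read by luminescence in a drug-repurposing library screen. A compound counts as a hit when its signal is more than five robust Z scores above the plate mean.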

The test deals with HEK293A TEAD-LUC reporter. Briefly: TEAD-luciferase reporter activity (YAP activation), robust Z score vs plate; higher = stronger YAP/TEAD activation. Particulars: 24 h. (In a reporter assay the amount or activity of a reporter protein is the signal.)

As for `Clc1ccc2c(c1)C(c1ccccc1)=NCc1nncn1-2` [Estazolam], the TEAD-luciferase reporter activity (compound concentration: 200 nM) is inactive: 0.0975 and the TEAD-luciferase reporter activity (compound concentration: 10 uM) is inactive: 2.08.

Regarding `CN1C(=O)[C@@H](NC(=O)[C@H](CCC(F)(F)F)[C@@H](CCC(F)(F)F)C(N)=O)N=C(c2ccccc2)c2ccccc21`, the TEAD-luciferase reporter activity reads like this: (compound concentration: 200 nM) inactive: -0.677; (compound concentration: 2 uM) inactive: -1.45; (compound concentration: 10 uM) inactive: -1.21.

`COc1ccc(CC(C)NCC(O)c2cc(N)cc(CO)c2)cc1` (stereo not given): the TEAD-luciferase reporter activity runs as follows: (compound concentration: 200 nM) inactive: -1.76; (compound concentration: 2 uM) inactive: -1.22; (compound concentration: 10 uM) inactive: 1.08.

In the case of `c1cc2c(c(NC3=NCCN3)c1)CCC2`, the TEAD-luciferase reporter activity runs as follows: (compound concentration: 200 nM) inactive: -0.329; (compound concentration: 2 uM) inactive: 0.0864; (compound concentration: 10 uM) inactive: 4.63.

Turning to `C[C@@]1(O)CC[C@@]2(C)[C@@H](CC[C@@H]3C4CC[C@H](C(=O)CSS(=O)(=O)[O-])[C@@]4(C)CC[C@H]32)C1` (stereo not given in full), the TEAD-luciferase reporter activity is inactive: -0.77 (compound concentration: 200 nM), inactive: 3.38 (compound concentration: 2 uM) and active: 11.9 (compound concentration: 10 uM).

`CC(=O)Nc1cc([As](=O)(O)O)ccc1O`: the TEAD-luciferase reporter activity reads like this: (compound concentration: 200 nM) inactive: -0.72; (compound concentration: 2 uM) inactive: 0.941; (compound concentration: 10 uM) inactive: 1.81.

In the case of `O=c1[nH]c2ccccc2n1C1CCN(CCCC(c2ccc(F)cc2)c2ccc(F)cc2)CC1` [pimozide], the TEAD-luciferase reporter activity runs as follows: (compound concentration: 200 nM) inactive: -0.92; (compound concentration: 2 uM) inactive: -0.354; (compound concentration: 10 uM) inactive: 1.56.

Consider `CN(C)CCNC(=O)C(C)(C)NC(=O)c1cc2c(n(CC3CCCCC3)c1=O)CCCCCC2`, for which the TEAD-luciferase reporter activity was inactive: 0.563 (compound concentration: 200 nM), inactive: 0.995 (compound concentration: 2 uM) and inactive: 4.55 (compound concentration: 10 uM).

Regarding `CCOCC1C(c2ccc(Cl)c(Cl)c2)C[C@@H]2CC[C@H]1N2C` (stereo not given in full), the TEAD-luciferase reporter activity is, setting by setting: (compound concentration: 200 nM) inactive: -0.754; (compound concentration: 2 uM) inactive: 0.298; (compound concentration: 10 uM) inactive: 1.92.

Turning to `CCN(Cc1ccc(Cl)nc1)/C(=C/[N+](=O)[O-])NC` [Nitenpyram], the TEAD-luciferase reporter activity reads like this: (compound concentration: 200 nM) inactive: 2.11; (compound concentration: 2 uM) inactive: 0.7; (compound concentration: 10 uM) inactive: -1.07.

In the case of `COc1ccc(CC2NCCc3cc(OC)c(OC)cc32)cc1OC` (stereo not given), the TEAD-luciferase reporter activity is inactive: -0.248 (compound concentration: 200 nM), inactive: 0.717 (compound concentration: 2 uM) and inactive: 4.11 (compound concentration: 10 uM).

As to `C[C@]12Cc3cnn(-c4ccc(F)cc4)c3C=C1CC[C@@H]1[C@@H]2CC[C@@]2(C)[C@H]1CC[C@@]2(O)C#N`, the TEAD-luciferase reporter activity was inactive: -0.45 (compound concentration: 200 nM), inactive: 1.36 (compound concentration: 2 uM) and inactive: 1.31 (compound concentration: 10 uM).

Regarding `O=C(O)C1=CCCN(CCOC(c2ccc(C(F)(F)F)cc2)c2ccc(C(F)(F)F)cc2)C1`, the TEAD-luciferase reporter activity was inactive: -2.15 (compound concentration: 200 nM), inactive: -1.28 (compound concentration: 2 uM) and inactive: 0.714 (compound concentration: 10 uM).

As for `CC(N)C(=O)O[C@H]1CC[C@H]2[C@@H]3CCc4cc(OC(=O)CN(CCl)CCCl)ccc4[C@H]3CC[C@]12C` (stereo not given in full), the TEAD-luciferase reporter activity reads like this: (compound concentration: 200 nM) inactive: -1.95; (compound concentration: 2 uM) inactive: 0.589; (compound concentration: 10 uM) inactive: 4.98.

With `Cc1nnc2n1-c1sc3c(c1C(c1ccccc1Cl)=NC2)CC(C(=O)N1CCOCC1)C3` (stereo not given), the TEAD-luciferase reporter activity is inactive: 0.268 (compound concentration: 200 nM), inactive: -0.482 (compound concentration: 2 uM) and inactive: 1.27 (compound concentration: 10 uM).

For the molecule `CC(C)(C)NCC(O)c1ccc(O)cc1Cl` (stereo not given), the TEAD-luciferase reporter activity is inactive: -0.676 (compound concentration: 200 nM), inactive: 1.27 (compound concentration: 2 uM) and inactive: -0.789 (compound concentration: 10 uM).

In the case of `CCCN(CCC)CCc1ccc(O)c(O)c1` [Dipropyldopamine hydrobromide], the TEAD-luciferase reporter activity by setting is: (compound concentration: 200 nM) inactive: -0.424; (compound concentration: 10 uM) inactive: 4.12.

With `CCCN(CCC)CCc1ccc(O)c(O)c1`, for the setting “compound concentration: 2 uM”, the TEAD-luciferase reporter activity was inactive: -1.73.

`C=CCN(C)C(C)(CO)Cc1ccc(Cl)c(Cl)c1` (stereo not given): the TEAD-luciferase reporter activity is inactive: -0.894 (compound concentration: 200 nM), inactive: -0.0793 (compound concentration: 2 uM) and inactive: 1.73 (compound concentration: 10 uM).

For `C[N+]1(C)[C@@H]2C[C@@H](OC(=O)[C@H](CO)c3ccccc3)C[C@H]1[C@@H]1O[C@@H]12` [Methscopolamine bromide], the TEAD-luciferase reporter activity (compound concentration: 2 uM) is inactive: 1.22.

In the case of `C[N+]1(C)[C@@H]2C[C@@H](OC(=O)[C@H](CO)c3ccccc3)C[C@H]1[C@@H]1O[C@@H]12`, the TEAD-luciferase reporter activity is inactive: -0.778 (compound concentration: 200 nM) and inactive: -0.786 (compound concentration: 10 uM).

On to `Clc1ccc(-c2ccc(Cl)cc2Cl)cc1`, for which the TEAD-luciferase reporter activity is inactive: 2.14 (compound concentration: 200 nM), inactive: 2.54 (compound concentration: 2 uM) and inactive: 1.48 (compound concentration: 10 uM).

As for `OC1(c2ccc(-c3ccc4ncccc4c3)cc2)CN2CCC1CC2` (stereo not given), the TEAD-luciferase reporter activity by setting is: (compound concentration: 200 nM) inactive: -1.53; (compound concentration: 2 uM) inactive: -0.119; (compound concentration: 10 uM) inactive: 2.48.

In the case of `COC1C(O)[C@@H](O[C@H]2CC[C@@]3(C=O)[C@H](CC[C@@H]4[C@@H]3CC[C@]3(C)[C@@H](C5=CC(=O)OC5)CC[C@]43O)C2)OC(C)[C@H]1O` (stereo not given in full) [Peruvoside], the TEAD-luciferase reporter activity runs as follows: (compound concentration: 200 nM) active: 25.5; (compound concentration: 2 uM) inactive: -2.4; (compound concentration: 10 uM) active: 6.65.

In the case of `Oc1ccc2c3c1O[C@H]1[C@@H](O)CC[C@@]4(O)[C@@H](C2)N(CC2CCC2)CC[C@]314` [Nalbuphine HCl], the TEAD-luciferase reporter activity by setting is: (compound concentration: 200 nM) inactive: 0.711; (compound concentration: 10 uM) inactive: -0.777.

`Oc1ccc2c3c1O[C@H]1[C@@H](O)CC[C@@]4(O)[C@@H](C2)N(CC2CCC2)CC[C@]314` [Nalbuphine hydrochloride]: for the setting “compound concentration: 2 uM”, the TEAD-luciferase reporter activity was inactive: -0.349.

With `CC[C@H]1CN2CC[C@H]1C[C@H]2[C@H](O)c1ccnc2ccc(OC)cc12`, the TEAD-luciferase reporter activity is inactive: -1.9 (compound concentration: 200 nM), inactive: -0.217 (compound concentration: 2 uM) and active: 6.32 (compound concentration: 10 uM).

On to `CCn1cc2c3c(cccc31)C1CC(NC(=O)n3nc(C)cc3C)CN(C)C1C2` (stereo not given), for which the TEAD-luciferase reporter activity was inactive: 1.93 (compound concentration: 200 nM), inactive: 0.0851 (compound concentration: 2 uM) and inactive: -1.06 (compound concentration: 10 uM).

Turning to `OC(O)C(Cl)(Cl)Cl` [chloral hydrate, MacroChem], the TEAD-luciferase reporter activity is inactive: 0.0289 (compound concentration: 200 nM), inactive: -0.449 (compound concentration: 2 uM) and inactive: 2.54 (compound concentration: 10 uM).

Turning to `CC1=C(C)C(=O)C(CC[C@](C)(O)CCC[C@H](C)CCC[C@H](C)CCCC(C)C)=C(C)C1=O` [alpha-Tocopherolqui], the TEAD-luciferase reporter activity is inactive: -0.198 (compound concentration: 200 nM), inactive: -0.3 (compound concentration: 2 uM) and inactive: 1.24 (compound concentration: 10 uM).

Regarding `CC1(C)CC(O)CC(C)(C)N1[O]`, the TEAD-luciferase reporter activity (compound concentration: 200 nM) was inactive: -0.804 and the TEAD-luciferase reporter activity (compound concentration: 10 uM) was inactive: 1.65.

Turning to `CC1(C)CC(O)CC(C)(C)N1[O]` [Tempol], the TEAD-luciferase reporter activity (compound concentration: 2 uM) is inactive: -0.732.

Turning to `CC(C(=O)O[C@H]1C[N+]2(CCc3ccc(F)cc3)CCC1CC2)(c1ccccc1)N1CCCCC1` (stereo not given in full), the TEAD-luciferase reporter activity by setting is: (compound concentration: 200 nM) inactive: 0.823; (compound concentration: 2 uM) inactive: 0.15; (compound concentration: 10 uM) inactive: 0.0242.

For `CC12CC[C@H]3[C@@H](CC[C@H]4C[C@H](N)[C@@H](O)CC43C)[C@@H]1CCC2=O` (stereo not given in full), the TEAD-luciferase reporter activity runs as follows: (compound concentration: 200 nM) inactive: -0.836; (compound concentration: 2 uM) inactive: -0.387; (compound concentration: 10 uM) inactive: 0.693.

Take `CCCCCCCCCCC(=O)O[C@H]1CC[C@H]2[C@@H]3CCC4=CC(=O)CC[C@]4(C)[C@H]3CC[C@]12C` [testosterone undecanoate]: the TEAD-luciferase reporter activity was inactive: -1.71 (compound concentration: 200 nM), inactive: 1.26 (compound concentration: 2 uM) and inactive: -0.328 (compound concentration: 10 uM).

As for `CCC(=O)N(c1ccc(Cl)c(Cl)c1)[C@@H]1CCC[C@H]1N(C)C` [eclanamine], the TEAD-luciferase reporter activity (compound concentration: 200 nM) was inactive: -0.872, the TEAD-luciferase reporter activity (compound concentration: 2 uM) was inactive: -1.24 and the TEAD-luciferase reporter activity (compound concentration: 10 uM) is inactive: -1.75.

The values are drawn from the supplement of paper PMC10735217.
